Test results reported in article PMC8508763.

Chains of the proteins cited; added tags and fusions are not shown. Lines headed by an entry give the natural chain unless they say otherwise; changes in a name come on top.
UniProt P31946: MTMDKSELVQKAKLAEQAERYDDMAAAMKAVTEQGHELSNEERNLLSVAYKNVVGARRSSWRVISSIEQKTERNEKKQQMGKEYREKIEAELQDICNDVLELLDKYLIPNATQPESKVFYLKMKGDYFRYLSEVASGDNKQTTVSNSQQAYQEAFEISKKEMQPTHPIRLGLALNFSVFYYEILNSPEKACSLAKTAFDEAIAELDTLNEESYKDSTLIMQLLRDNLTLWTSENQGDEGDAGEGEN

Assays:
[1] = target: His-SELENOW(U13C) (UniProt P63300); assay: co-IP; HEK293 cells co-transfected with His-SELENOW(U13C) and HA-14-3-3β (WT, C96S, C191S or C96,191S); extracts immunoprecipitated with anti-His, immunoblotted with anti-HA and anti-His
[2] = target: GST-SELENOW(U13C) (mouse) (UniProt P63300); assay: pull-down; competition: purified GST-SELENOW(U13C) (5 μg) and lysate overexpressing HA-14-3-3β (5 μg) with 0, 1, 2 or 5 μg Trx1-His for 2 h; glutathione or Ni-NTA beads 1 h; non-reducing SDS-PAGE, immunoblot anti-HA; only the target purified

| binding [1] | binding [2] | Substance |
| --- | --- | --- |
| binds | – | HA-14-3-3β(C96S) (from UniProt P31946 1-246) |
| binds | binds | HA-14-3-3β (from UniProt P31946 1-246) |

These are yes or no findings as the source states them, for the method shown. Binding seen in cells or lysates may run through a third protein. A result given as binding can be weak or reduced; the word gives no strength.
